This note sets out measurements from article PMC4498735, “Fibulin-1C, C1 Esterase Inhibitor and Glucose Regulated Protein 75 Interact with the CREC Proteins, Calumenin and Reticulocalbin” (PLoS ONE, 2015).

Amino acid sequences for entries named in this document (tags omitted). Residues count along the entry.
UniProt O43852, residues 20-315: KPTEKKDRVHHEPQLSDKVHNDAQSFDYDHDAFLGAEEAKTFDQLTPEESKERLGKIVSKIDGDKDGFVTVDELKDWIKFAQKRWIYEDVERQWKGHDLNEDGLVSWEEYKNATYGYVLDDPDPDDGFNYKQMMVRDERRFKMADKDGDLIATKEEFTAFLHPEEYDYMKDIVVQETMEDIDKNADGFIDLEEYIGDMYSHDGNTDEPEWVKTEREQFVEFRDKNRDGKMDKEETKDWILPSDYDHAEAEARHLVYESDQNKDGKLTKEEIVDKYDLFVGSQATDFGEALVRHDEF
UniProt P07996, residues 19-1170: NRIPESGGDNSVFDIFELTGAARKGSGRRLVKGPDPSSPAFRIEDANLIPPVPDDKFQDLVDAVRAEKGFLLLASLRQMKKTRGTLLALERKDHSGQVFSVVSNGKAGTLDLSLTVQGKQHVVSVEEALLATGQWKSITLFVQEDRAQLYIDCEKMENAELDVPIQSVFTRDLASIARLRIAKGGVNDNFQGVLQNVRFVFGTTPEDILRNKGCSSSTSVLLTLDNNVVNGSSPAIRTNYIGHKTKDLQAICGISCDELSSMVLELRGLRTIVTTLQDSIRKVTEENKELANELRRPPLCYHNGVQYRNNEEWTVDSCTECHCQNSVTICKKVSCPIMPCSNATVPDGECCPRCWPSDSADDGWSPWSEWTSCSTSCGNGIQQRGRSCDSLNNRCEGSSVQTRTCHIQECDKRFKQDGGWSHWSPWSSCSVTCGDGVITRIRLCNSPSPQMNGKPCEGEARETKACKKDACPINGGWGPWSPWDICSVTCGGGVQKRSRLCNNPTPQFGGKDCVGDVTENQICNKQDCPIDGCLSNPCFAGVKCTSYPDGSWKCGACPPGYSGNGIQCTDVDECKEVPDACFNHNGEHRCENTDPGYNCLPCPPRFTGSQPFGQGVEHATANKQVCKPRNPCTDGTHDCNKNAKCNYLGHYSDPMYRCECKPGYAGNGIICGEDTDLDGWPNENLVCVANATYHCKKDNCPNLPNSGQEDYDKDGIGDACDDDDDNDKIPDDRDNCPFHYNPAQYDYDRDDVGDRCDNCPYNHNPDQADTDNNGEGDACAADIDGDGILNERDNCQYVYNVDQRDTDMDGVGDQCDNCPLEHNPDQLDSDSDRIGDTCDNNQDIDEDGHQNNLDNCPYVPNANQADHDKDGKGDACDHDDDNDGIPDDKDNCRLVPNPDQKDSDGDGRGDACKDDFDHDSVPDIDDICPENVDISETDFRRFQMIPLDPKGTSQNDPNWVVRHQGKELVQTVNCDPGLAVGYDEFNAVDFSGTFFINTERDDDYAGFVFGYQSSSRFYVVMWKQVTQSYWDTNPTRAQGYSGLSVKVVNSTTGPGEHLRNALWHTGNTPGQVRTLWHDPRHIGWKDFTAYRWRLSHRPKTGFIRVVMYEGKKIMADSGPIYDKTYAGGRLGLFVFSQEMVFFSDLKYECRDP

The target in experiment [1] is recombinant calumenin (immobilised; construct not told) (UniProt O43852). Nature of the experiment: affinity purification with mass spectrometry; recombinant calumenin or reticulocalbin coupled to CNBr activated sepharose 4B; dialyzed human placenta extract applied in MB-buffer (2 mM CaCl2, 1 mM MgCl2, 10 mM HEPES, 140 mM NaCl, pH 7.4); stepwise elution with 0.2 to 1 M NaCl and 1 M NaCl with EDTA; reference column without protein; 1D- and 2D-PAGE, silver staining, MALDI-TOF; only the target purified.

The target in experiment [2] is recombinant reticulocalbin. Described as above.

These are yes or no findings as the source states them, for the method shown. In cells and extracts the contact can be indirect. Here binding means that the protein was enriched with, or labelled near, the bait; the list need not be complete.

As for “thrombospondin-1 from human placenta extract (from UniProt P07996 19-1170)”, the binding result in experiment [1] is on record as “binds”.

B1: fibulin-1 (C variant) from human placenta extract (protein, UniProt P23142-4 30-683)
chain: DVLLEACCADGHRMATHQKDCSLPYATESKECRMVQEQCCHSQLEELHCATGISLANEQDRCATPHGDNASLEATFVKRCCHCCLLGRAAQAQGQSCEYSLMVGYQCGQVFQACCVKSQETGDLDVGGLQETDKIIEVEEEQEDPYLNDRCRGGGPCKQQCRDTGDEVVCSCFVGYQLLSDGVSCEDVNECITGSHSCRLGESCINTVGSFRCQRDSSCGTGYELTEDNSCKDIDECESGIHNCLPDFICQNTLGSFRCRPKLQCKSGFIQDALGNCIDINECLSISAPCPIGHTCINTEGSYTCQKNVPNCGRGYHLNEEGTRCVDVDECAPPAEPCGKGHRCVNSPGSFRCECKTGYYFDGISRMCVDVNECQRYPGRLCGHKCENTLGSYLCSCSVGFRLSVDGRSCEDINECSSSPCSQECANVYGSYQCYCRRGYQLSDVDGVTCEDIDECALPTGGHICSYRCINIPGSFQCSCPSSGYRLAPNGRNCQDIDECVTGIHNCSINETCFNIQGGFRCLAFECPENYRRSAATRCERLPCHENRECSKLPLRITYYHLSFPTNIQAPAVVFRMGPSSAVPGDSMQLAITGGNEEGFFTTRKVSPHSGVVALTKPVPEPRDLLLTVKMDLSRHGTVSSFVAKLFIFVSAEL
As to B1, the binding entry in experiment [2] and in experiment [1] was “binds” each time.

B2: C1 esterase inhibitor from human placenta extract (protein, UniProt P05155 23-500)
chain: NPNATSSSSQDPESLQDRGEGKVATTVISKMLFVEPILEVSSLPTTNSTTNSATKITANTTDEPTTQPTTEPTTQPTIQPTQPTTQLPTDSPTQPTTGSFCPGPVTLCSDLESHSTEAVLGDALVDFSLKLYHAFSAMKKVETNMAFSPFSIASLLTQVLLGAGENTKTNLESILSYPKDFTCVHQALKGFTTKGVTSVSQIFHSPDLAIRDTFVNASRTLYSSSPRVLSNNSDANLELINTWVAKNTNNKISRLLDSLPSDTRLVLLNAIYLSAKWKTTFDPKKTRMEPFHFKNSVIKVPMMNSKKYPVAHFIDQTLKAKVGQLQLSHNLSLVILVPQNLKHRLEDMEQALSPSVFKAIMEKLEMSKFQPTLLTLPRIKVTTSQDMLSIMEKLEFFDFSYDLNLCGLTEDPDLQVSAMQHQTVLELTETGVEAAAASAISVARTLLVFEVQQPFLFVLWDQQHKFPVFMGRVYDPRA
On to B2, for which the binding entry in experiment [2] and in experiment [1] was “binds” each time.
